Data taken from article PMC12073449, “Development of a Mechanism of Action-Reflective Cell-Based Reporter Gene Assay for Measuring Bioactivities of Therapeutic Glucagon-like Peptide-2 Analogues” (Molecules, 2025).
Where two headings read alike, the source gives them in different places.

System: HEK293-GLP-2R-Luc cells

His-Gly-Asp-Gly-Ser-Phe-Ser-Asp-Glu-Met-Asn-Thr-Ile-Leu-Asp-Asn-Leu-Ala-Ala-Arg-Asp-Phe-Ile-Asn-Trp-Leu-Ile-Gln-Thr-Lys-Ile-Thr-Asp [teduglutide, [Gly2] hGLP-2 (1–33)]
log2 (TD/Ctrl) (gene ACTA2): −1.172 | log2 (TD/Ctrl) (gene ADAMTSL1): 2.102 | log2 (TD/Ctrl) (gene AHR): 1.187 | log2 (TD/Ctrl) (gene BMPER): 2.761 | log2 (TD/Ctrl) (gene C11orf96): 1.666 | log2 (TD/Ctrl) (gene CACNB2): 1.036 | log2 (TD/Ctrl) (gene CALCB): 2.075 | log2 (TD/Ctrl) (gene CARMIL2): 1.478 | log2 (TD/Ctrl) (gene CCN2): 1.203 | log2 (TD/Ctrl) (gene CD24): 1.239 | log2 (TD/Ctrl) (gene CD55): 1.135 | log2 (TD/Ctrl) (gene CGA): 6.563 | log2 (TD/Ctrl) (gene CHGB): 3.025 | log2 (TD/Ctrl) (gene CLSTN2): −1.063 | log2 (TD/Ctrl) (gene COL1A1): 1.489 | log2 (TD/Ctrl) (gene CREM): 1.511 | log2 (TD/Ctrl) (gene CXCL8): 1.295 | log2 (TD/Ctrl) (gene CYP4 × 1): −1.144 | log2 (TD/Ctrl) (gene DAB1): 2.622 | log2 (TD/Ctrl) (gene DNER): 3.336 | log2 (TD/Ctrl) (gene DUSP1): 1.044 | log2 (TD/Ctrl) (gene DUSP4): 1.424 | log2 (TD/Ctrl) (gene DUSP6): 1.617 | log2 (TD/Ctrl) (gene ECEL1): 1.362 | log2 (TD/Ctrl) (gene EMILIN2): 1.218 | log2 (TD/Ctrl) (gene ETV4): 3.755 | log2 (TD/Ctrl) (gene ETV5): 2.054 | log2 (TD/Ctrl) (gene FAM43A): 1.109 | log2 (TD/Ctrl) (gene FOSL1): 1.929 | log2 (TD/Ctrl) (gene GCNA): 1.616 | log2 (TD/Ctrl) (gene GEM): 1.149 | log2 (TD/Ctrl) (gene GLA): 1.223 | log2 (TD/Ctrl) (gene GPR3): 1.963 | log2 (TD/Ctrl) (gene HMOX1): −1.207 | log2 (TD/Ctrl) (gene IER3): 1.413 | log2 (TD/Ctrl) (gene INHBA): 2.909 | log2 (TD/Ctrl) (gene INPP5D): −2.362 | log2 (TD/Ctrl) (gene INSM1): 1.381 | log2 (TD/Ctrl) (gene JMJD7-PLA2G4B): −3.917 | log2 (TD/Ctrl) (gene LIPG): 1.309 | log2 (TD/Ctrl) (gene LOC102724428): 1.465 | log2 (TD/Ctrl) (gene LOC124901228): −1.035 | log2 (TD/Ctrl) (gene MAFF): 1.865 | log2 (TD/Ctrl) (gene MN1): 1.083 | log2 (TD/Ctrl) (gene MYOM2): 1.131 | log2 (TD/Ctrl) (gene NAV2): 1.099 | log2 (TD/Ctrl) (gene NDRG1): 1.067 | log2 (TD/Ctrl) (gene NR4A1): 2.868 | log2 (TD/Ctrl) (gene NR4A2): 2.397 | log2 (TD/Ctrl) (gene NR4A3): 1.676 | log2 (TD/Ctrl) (gene NTS): 3.486 | log2 (TD/Ctrl) (gene PAPPA): 1.666 | log2 (TD/Ctrl) (gene PCK1): 2.587 | log2 (TD/Ctrl) (gene PCSK1): 4.992 | log2 (TD/Ctrl) (gene PDE3A): 2.656 | log2 (TD/Ctrl) (gene PDE4B): 1.541 | log2 (TD/Ctrl) (gene PDE4D): 1.03 | log2 (TD/Ctrl) (gene PDE7B): 1.707 | log2 (TD/Ctrl) (gene PDE10A): 1.35 | log2 (TD/Ctrl) (gene PDK4): 1.496 | log2 (TD/Ctrl) (gene PPEF1): 1.489 | log2 (TD/Ctrl) (gene PTP4A1): 1.072 | log2 (TD/Ctrl) (gene RPRM): 1.289 | log2 (TD/Ctrl) (gene SCARA5): 1.828 | log2 (TD/Ctrl) (gene SERPINE2): 1.143 | log2 (TD/Ctrl) (gene SGK1): 1.306 | log2 (TD/Ctrl) (gene SIK1): 1.314 | log2 (TD/Ctrl) (gene SLC6A17): 1.471 | log2 (TD/Ctrl) (gene SMOX): 1.374 | log2 (TD/Ctrl) (gene SNAP25): 1.562 | log2 (TD/Ctrl) (gene SPRY4): 1.6 | log2 (TD/Ctrl) (gene SV2C): 6.783 | log2 (TD/Ctrl) (gene SYAP1): 1.387 | log2 (TD/Ctrl) (gene SYT4): 2.682 | log2 (TD/Ctrl) (gene TAC1): 2.759 | log2 (TD/Ctrl) (gene TCIM): 4.105 | log2 (TD/Ctrl) (gene TENT5A): 1.411 | log2 (TD/Ctrl) (gene TNC): 1.312 | log2 (TD/Ctrl) (gene TSC22D3): 1.013 | log2 (TD/Ctrl) (gene UBE2QL1): 2.108 | log2 (TD/Ctrl) (gene UGT3A1): 3.442 | log2 (TD/Ctrl) (gene USH1C): 2.824 | log2 (TD/Ctrl) (gene VGF): 2.119
